{"source": "PubChem BioAssay AID1259308 (NCATS, 2017)", "screen": "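Candidate targets for better recombinant protein yield in mammalian cells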 (primary screen)", "cell system": "human HEK293 embryonic kidney cells stably expressing firefly luciferase (HEK-CMV-Luc2-Hygro)", "knock-down reagent": "single siRNA against human genes, 0.8 pmol siRNA per well", "timing": "72 h", "detection": "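Luciferase light (ONE-Glo) measured on one replicate plate set and viability (CellTiter-Glo) on the other, scaled to a negative control siRNA, with robust z-scores and luciferase per cell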", "direction": "total luciferase, z-score and total luciferase, % of control: higher = more reporter protein produced", "active means": "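An siRNA counts as active if its total luciferase robust z-score exceeds 3; genes with two or more such siRNAs out of three were retested with fresh siRNAs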", "meaning of the calls": "active = raised luciferase; inactive = no rise", "note": "In all, the deposit lists about 59,000 reagents; shown is an unselected part. About 1,510 of them (2.6%) count as active. 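Calls use total luciferase alone and ignore viability, so some active siRNAs may act by altering cell number.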 The numbers tell different reagents against one gene apart. Not all columns of the deposit are shown."}
{"gene": "APOC2", "siRNA no.": 1, "total luciferase, z-score": -0.159, "total luciferase, % of control": 78.7, "Call": "inactive"}
{"gene": "APOC2", "siRNA no.": 2, "total luciferase, z-score": 0.0561, "total luciferase, % of control": 83, "Call": "inactive"}
{"gene": "APOC2", "siRNA no.": 3, "total luciferase, z-score": -1.36, "total luciferase, % of control": 54.8, "Call": "inactive"}
{"gene": "TP63", "siRNA no.": 1, "total luciferase, z-score": 0.0775, "total luciferase, % of control": 83.4, "Call": "inactive"}
{"gene": "TP63", "siRNA no.": 2, "total luciferase, z-score": 2.24, "total luciferase, % of control": 126, "Call": "inactive"}
{"gene": "TP63", "siRNA no.": 3, "total luciferase, z-score": -0.0485, "total luciferase, % of control": 80.9, "Call": "inactive"}
{"gene": "TERF1", "siRNA no.": 1, "total luciferase, z-score": -0.178, "total luciferase, % of control": 78.3, "Call": "inactive"}
{"gene": "TERF1", "siRNA no.": 2, "total luciferase, z-score": -0.23, "total luciferase, % of control": 77.3, "Call": "inactive"}
{"gene": "TERF1", "siRNA no.": 3, "total luciferase, z-score": -0.147, "total luciferase, % of control": 79, "Call": "inactive"}
{"gene": "RHOA", "siRNA no.": 1, "total luciferase, z-score": -1.34, "total luciferase, % of control": 55.2, "Call": "inactive"}
{"gene": "RHOA", "siRNA no.": 2, "total luciferase, z-score": -0.164, "total luciferase, % of control": 78.6, "Call": "inactive"}
{"gene": "RHOA", "siRNA no.": 3, "total luciferase, z-score": 0.0962, "total luciferase, % of control": 83.8, "Call": "inactive"}
{"gene": "COL4A1", "siRNA no.": 1, "total luciferase, z-score": 0.998, "total luciferase, % of control": 102, "Call": "inactive"}
{"gene": "COL4A1", "siRNA no.": 2, "total luciferase, z-score": 0.833, "total luciferase, % of control": 98.4, "Call": "inactive"}
{"gene": "COL4A1", "siRNA no.": 3, "total luciferase, z-score": -0.741, "total luciferase, % of control": 67.1, "Call": "inactive"}
{"gene": "TNFSF15", "siRNA no.": 1, "total luciferase, z-score": -0.687, "total luciferase, % of control": 68.2, "Call": "inactive"}
{"gene": "TNFSF15", "siRNA no.": 2, "total luciferase, z-score": 4.42, "total luciferase, % of control": 170, "Call": "active"}
{"gene": "TNFSF15", "siRNA no.": 3, "total luciferase, z-score": 1.92, "total luciferase, % of control": 120, "Call": "inactive"}
{"gene": "MTARC1", "siRNA no.": 1, "total luciferase, z-score": 2.29, "total luciferase, % of control": 127, "Call": "inactive"}
{"gene": "MTARC1", "siRNA no.": 2, "total luciferase, z-score": 0.849, "total luciferase, % of control": 98.8, "Call": "inactive"}
{"gene": "MTARC1", "siRNA no.": 3, "total luciferase, z-score": -0.304, "total luciferase, % of control": 75.8, "Call": "inactive"}
{"gene": "PAMR1", "siRNA no.": 1, "total luciferase, z-score": 0.587, "total luciferase, % of control": 93.6, "Call": "inactive"}
{"gene": "PAMR1", "siRNA no.": 2, "total luciferase, z-score": -0.686, "total luciferase, % of control": 68.2, "Call": "inactive"}
{"gene": "PAMR1", "siRNA no.": 3, "total luciferase, z-score": -0.415, "total luciferase, % of control": 73.6, "Call": "inactive"}
{"gene": "FKTN", "siRNA no.": 1, "total luciferase, z-score": 0.981, "total luciferase, % of control": 101, "Call": "inactive"}
{"gene": "FKTN", "siRNA no.": 2, "total luciferase, z-score": 0.581, "total luciferase, % of control": 93.4, "Call": "inactive"}
{"gene": "FKTN", "siRNA no.": 3, "total luciferase, z-score": -1.15, "total luciferase, % of control": 59, "Call": "inactive"}
{"gene": "TUT4", "siRNA no.": 1, "total luciferase, z-score": 0.829, "total luciferase, % of control": 98.4, "Call": "inactive"}
{"gene": "TUT4", "siRNA no.": 2, "total luciferase, z-score": -0.527, "total luciferase, % of control": 71.4, "Call": "inactive"}
{"gene": "TUT4", "siRNA no.": 3, "total luciferase, z-score": 2.42, "total luciferase, % of control": 130, "Call": "inactive"}
{"gene": "KIAA1210", "siRNA no.": 1, "total luciferase, z-score": -0.467, "total luciferase, % of control": 72.6, "Call": "inactive"}
{"gene": "KIAA1210", "siRNA no.": 2, "total luciferase, z-score": -1.1, "total luciferase, % of control": 60.1, "Call": "inactive"}
{"gene": "KIAA1210", "siRNA no.": 3, "total luciferase, z-score": -0.955, "total luciferase, % of control": 62.9, "Call": "inactive"}
